Measured values as given in article PMC4583462.
No constants are given. Whether binding was seen depends on the method and setting. Binding seen in cells or lysates may run through a third protein. Some results given as binding are weak or reduced against the parent protein; the word gives no strength.

Protein sequences, listed by entry. Tags and fused reporters are not part of them. Chains listed by the source or under a name are the forms on record and can include a tag or linker. Residues count along the entry.
myc-tagged EMCV nonstructural protein 2C (P12296, residues 1196-1520): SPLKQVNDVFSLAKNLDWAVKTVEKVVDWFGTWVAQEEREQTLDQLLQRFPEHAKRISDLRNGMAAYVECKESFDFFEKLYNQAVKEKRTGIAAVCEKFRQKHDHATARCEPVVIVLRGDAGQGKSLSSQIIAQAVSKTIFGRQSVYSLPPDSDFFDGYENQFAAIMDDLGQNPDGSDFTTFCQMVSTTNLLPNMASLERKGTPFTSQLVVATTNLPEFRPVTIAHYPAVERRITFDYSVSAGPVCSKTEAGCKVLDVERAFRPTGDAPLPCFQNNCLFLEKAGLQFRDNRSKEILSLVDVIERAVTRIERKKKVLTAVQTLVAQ
myc-tagged EMCV nonstructural protein 3A (P12296, residues 1521-1608): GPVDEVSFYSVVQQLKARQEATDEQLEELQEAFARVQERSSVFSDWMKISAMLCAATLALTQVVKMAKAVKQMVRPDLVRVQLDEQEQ
myc-tagged EMCV nonstructural protein 3C (P12296, residues 1629-1833): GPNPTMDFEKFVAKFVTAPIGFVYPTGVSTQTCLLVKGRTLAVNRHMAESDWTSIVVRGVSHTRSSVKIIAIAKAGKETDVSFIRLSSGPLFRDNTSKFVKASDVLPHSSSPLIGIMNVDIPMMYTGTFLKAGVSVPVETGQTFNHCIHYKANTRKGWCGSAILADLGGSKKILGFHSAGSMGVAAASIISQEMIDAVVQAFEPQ

Key:
[1] = molecular target: myc-tagged EMCV nonstructural protein 3A (EMCV, strain mengovirus) (UniProt P12296); experiment: co-IP; myc-tagged 3A co-expressed with HA-PI4KA in Huh7-Lunet/T7 cells; IP with mouse monoclonal or rabbit polyclonal anti-myc antibody and protein A-sepharose; western blot against the myc and HA tags
[2] = molecular target: myc-tagged EMCV nonstructural protein 2C (EMCV, strain mengovirus) (UniProt P12296); experiment: co-IP; myc-tagged viral proteins co-expressed with HA-PI4KA in Huh7-Lunet/T7 cells, [35S] methionine/cysteine labelling, lysis in 50 mM Tris-Cl pH 7.5, 150 mM NaCl, 1% Nonidet P-40; IP with anti-c-myc rabbit polyclonal antibody and protein G-sepharose at 4°C; SDS-PAGE and autoradiography
[3] = molecular target: myc-tagged EMCV nonstructural protein 3C (EMCV, strain mengovirus) (UniProt P12296); experiment: as above
[4] = molecular target: myc-tagged EMCV nonstructural protein 3A (EMCV, strain mengovirus) (UniProt P12296); experiment: as above

HA-PI4KA (phosphatidylinositol 4-kinase III alpha) (from UniProt P42356 1-2102) (enzyme)
binding [1]: binds | binding [2]: no binding | binding [3]: no binding | binding [4]: binds
